Source: paper PMC6559944 (Journal of medicinal chemistry, 2019)
Like-named read-outs stand apart in the source and are kept apart here.

What was measured:
[1] = mice, single oral dose, escalating: 100-400 mg/kg for 6, 150-600 mg/kg for 15, 100-250 mg/kg for 25
[2] = mouse, in vivo
human cell lines = test: Toxicity to human cell lines

Q: Which results are given for `CC(C)(CO)Cn1nc(-c2ccc3cc(OC4CC4)ccc3c2)c(C(N)=O)c1N` [Compound 6, 5-amino-3-(6-cyclopropoxynaphthalen-2-yl)-1-(3-hydroxy-2,2-dimethylpropyl)-1H-pyrazole-4-carboxamide]?
A: Observable signs of toxicity or distress [1]: no observable signs of toxicity or distress; Observable signs of toxicity ([2]; 100 mg/kg): Neither dose concentration showed any observable signs of toxicity; White blood cell counts ([2]; 100 mg/kg): 1.5 ± 0.2 K/μL; White blood cell counts ([2]; 200 mg/kg): 1.5 ± 0.9 K/μL; Toxicity to human cell lines (human cell lines): not toxic to a variety of human cell lines
